Results are given in words; binding and its absence hold for the method and conditions named. Binding seen in cells or lysates may run through a third protein. Some results given as binding are weak or reduced against the parent protein; the word gives no strength.

Amino acid sequences for entries named in this document (tags omitted).
UniProt O95863: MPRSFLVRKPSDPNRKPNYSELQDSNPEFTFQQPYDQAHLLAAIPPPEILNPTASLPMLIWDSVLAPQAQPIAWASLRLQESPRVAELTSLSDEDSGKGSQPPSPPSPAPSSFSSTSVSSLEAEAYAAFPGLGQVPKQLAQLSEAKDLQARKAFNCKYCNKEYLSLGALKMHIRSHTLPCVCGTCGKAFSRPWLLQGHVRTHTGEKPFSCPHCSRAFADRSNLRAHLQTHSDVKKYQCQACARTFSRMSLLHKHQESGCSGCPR
UniProt Q8WXI9: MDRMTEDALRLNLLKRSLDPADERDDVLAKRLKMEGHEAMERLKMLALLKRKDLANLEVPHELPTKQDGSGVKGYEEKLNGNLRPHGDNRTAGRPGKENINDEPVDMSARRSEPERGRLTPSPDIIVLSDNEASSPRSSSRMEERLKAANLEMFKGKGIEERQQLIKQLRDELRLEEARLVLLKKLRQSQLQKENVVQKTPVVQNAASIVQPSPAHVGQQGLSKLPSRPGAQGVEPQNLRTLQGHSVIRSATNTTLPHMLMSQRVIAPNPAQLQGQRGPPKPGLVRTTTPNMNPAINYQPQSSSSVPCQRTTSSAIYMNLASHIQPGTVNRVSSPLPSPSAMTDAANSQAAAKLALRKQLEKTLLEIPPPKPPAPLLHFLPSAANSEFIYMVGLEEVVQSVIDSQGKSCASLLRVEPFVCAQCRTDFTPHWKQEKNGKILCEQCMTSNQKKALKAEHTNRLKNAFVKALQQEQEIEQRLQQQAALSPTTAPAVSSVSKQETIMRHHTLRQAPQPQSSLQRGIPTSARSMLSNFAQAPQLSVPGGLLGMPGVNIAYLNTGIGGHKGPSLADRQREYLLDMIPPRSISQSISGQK

In publication PMC10307831, “GATA zinc finger protein p66β promotes breast cancer cell migration by acting as a co-activator of Snail” one finds binding data, which are given here for five substances.

In one experiment the target is GST-Snail (UniProt O95863 1-264). Kind of experiment: pull-down; bacterially expressed GST-Snail or its truncations incubated with HA-p66β prepared from HEK-293T cells and GST beads; co-eluted HA-p66β detected by anti-HA Western blot; only the target purified.
The next experiment addresses HA-Snail (UniProt O95863). Kind of experiment: co-IP; reverse IP: HEK-293T cells transfected with Flag-p66β and HA-Snail; anti-HA antibody and protein A/G agarose 12 h at 4 °C; blot with anti-Flag.
Experiment [1] concerns the target Flag-Snail (stably expressed in MDA-MB-231 cells) (UniProt O95863). Nature of the experiment: co-IP; lysates of MDA-MB-231-Flag-Snail stable cells on anti-Flag M2 beads; co-eluted proteins detected with an anti-p66β antibody.
Experiment [2] has as its target p66β (endogenous, MDA-MB-231 cells) (human (endogenous in MDA-MB-231)) (UniProt Q8WXI9). Nature of the experiment: co-IP; lysates of MDA-MB-231 cells with an anti-p66β antibody and protein A/G beads; co-eluted proteins detected with a Snail antibody; both proteins endogenous.
The target in a further experiment is Flag-p66β (UniProt Q8WXI9 1-593). Nature of the experiment: co-IP; HEK-293T cells transfected with Flag-p66β (or its truncations) and HA-Snail and/or HA-MTA2; IP buffer (1% Triton X-100, 150 mM NaCl, 50 mM Tris/HCl pH 7.5); anti-Flag M2 affinity gel 4 h at 4 °C; blot with anti-HA; in Fig. S3 with increasing expression of HA-Snail.

Turning to HA-p66β (from UniProt Q8WXI9 1-593), the binding result with GST-Snail is “binds”.

As to “Flag-p66β (full-length) (from UniProt Q8WXI9 1-593)”, in the experiment with HA-Snail, the binding result is “binds”.

“p66β (endogenous, MDA-MB-231 cells) (from UniProt Q8WXI9 1-593)”: in experiment [1], the binding entry is given as “binds”.

For “Snail (endogenous, MDA-MB-231 cells) (from UniProt O95863 1-264)”, the binding result in experiment [2] is reported as “binds”.

On to HA-Snail (from UniProt O95863 1-264), for which, in the experiment with Flag-p66β, the binding result is reported as “binds”.
